Values quoted from earlier work in US5942631A, “Inhibitors of cholesterol esterase” (University Of New Mexico, priority 1998, dated 1999).
At least one compound was matched to its structure with a doubt left.

Tests used:
[1] = system: cholesterol absorption; details: rats, intragastric single dose simultaneous with feeding of cholesterol ester; cited from earlier work
[2] = system: lumenal CE; details: rats, intragastric single dose simultaneous with feeding of cholesterol ester; cited from earlier work
[3] = system: CE; details: in vitro; cited from earlier work
[4] = target: chymotrypsin (Bos taurus, UniProt P00766); details: result in words; cited from earlier work

## O=c1oc(Cl)ccc1Cc1ccccc1 [3-benzyl-6-chloropyrone]
[1]
  drop in cholesterol absorption: 60%
[2]
  inactivation of lumenal CE activity: 63%
[3]
  half life of CE inactivation: 1.67 min
[4]
  selectivity as suicide inhibitor: not highly selective
